Experimental data: PubChem BioAssay AID493014 (National Center for Advancing Translational Sciences (NCATS), 2011)
This is one part of the list. The main result of the screen is listed elsewhere. These columns were measured beside it and carry no call. Most of these compounds were active or inconclusive in the main read-out, so they are no random draw. Words in brackets tell the shape of the fitted curve; partial curves, single points and poor fits give uncertain potencies.

Assay: qHTS Assay to Find Inhibitors of Chronic Active B-Cell Receptor Signaling
Conditions: ABC-DLBCL IkBa-CBG/CBR reporter, luminescence ratio (green luciferase fused to IkBa over red control in TMD8 lymphoma cells), 4 h
How it was run: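 Cell line TMD8 (human ABC DLBCL), stably expressing tet-inducible CBG68-IkBa fusion and CBR; IMDM/0.5% FBS; cpd up to 46 uM; dox induction, 4 h, 37C/5% CO2; dual luminescence; green/red ratio; MG132 control.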

[1] = measured here: CBR red luminescence, cell number
[2] = measured here: IkBa-CBG green luminescence

| SMILES | AC50 [1] | AC50 [2] |
| --- | --- | --- |
| O=C1c2cccc3cccc(c23)C(=O)N1c1cccnc1 | 14.1 µM [rising, single point] |  |
| CC(=O)OCC12COC3c4ccccc4OC(C)(CC1C)C3C2C (stereo not given) | 1.12 µM [falling, single point] |  |
| CCN1C(=O)c2ccc(C(=O)NCc3ccccc3)cc2C1=O | 29.1 µM [falling, single point] |  |
| CC(=O)Nc1ccc(NC(=O)CSc2nc3c([nH]c4ccccc43)c(=O)n2-c2ccccc2F)cc1 | 22.4 µM [falling, single point] |  |
| O=C(N=c1nc2ccccn2s1)c1ccccc1 | 2.24 µM [falling, full curve, poor fit] |  |
| Cc1ccc(C(=O)NNC(=O)CCCN2C(=O)/C(=C/c3ccccc3Cl)SC2=S)cc1 | 2.31 µM [falling, full curve] |  |
| CC1(C)CC(=O)C2=C(C1)c1c(ccc3ccccc13)NC2c1ccc(C(=O)O)cc1 (stereo not given) | 11.2 µM [falling, partial curve] |  |
| Nc1cc2c(cc1Cl)N(Cc1ccccc1)C(=O)CO2 | 29.1 µM [rising, single point] |  |
| Cc1c(Nc2c3c(c(C#N)c4nc5ccccc5n24)CCC3)c(=O)n(-c2ccccc2)n1C | 0.631 µM [falling, partial curve, poor fit] |  |
| Cc1ccc2c(C)nc(NC3=NCN(CCc4ccccc4)CN3)nc2c1 | 5.01 µM [falling, partial curve] |  |
| COc1ccc(C(=O)/C=C/Nc2cccc(O)c2)cc1 | 25.9 µM [falling, single point] |  |
| Cc1ccc(-c2cc(C(=O)N3CCCCCC3)no2)cc1 | 11.2 µM [falling, partial curve, poor fit] |  |
| COc1cccc(N2CCN(Cc3ccsc3)CC2)c1 | 29.1 µM [rising, single point] |  |
| COc1ccc(OC)c(/C=N/N=C(\N)c2nonc2N)c1 | 10 µM [falling, single point] |  |
| CC1S/C(=N/N=C2CCCCC2)NC1=O (stereo not given) |  | 20.6 µM [falling, single point] |
| COc1ccc2c(c1)c(C(=O)N/N=C/c1ccc(O)c(O)c1)c(C)n2C | 29.1 µM [falling, single point] |  |
| Oc1ccccc1CNc1ncc(Br)cc1Br | 35.5 µM [rising, single point] |  |
| Cc1cc(Oc2ccc(-c3ccccc3)cc2)n2ncnc2n1 | 4.47 µM [falling, full curve] |  |
| CCOC(=O)c1c(-c2ccc(OC)cc2)oc2cc(Br)c(O)cc12 | 14.1 µM [rising, partial curve, poor fit] |  |
| CCOCC(=O)Nc1nc2ccccc2s1 | 20.6 µM [falling, partial curve] |  |
| Cc1ccc(-n2c([C@@H]3C[C@H]3c3ccccc3)n[nH]c2=S)cc1 | 9.2 µM [rising, partial curve, poor fit] |  |
| Oc1ccccc1OCCOc1ccccc1OCCOc1ccccc1O | 11.2 µM [falling, partial curve, poor fit] |  |
| Cc1cc([N+](=O)[O-])nn1CC(=O)NCc1ccccc1 | 15.8 µM [rising, single point] |  |

| SMILES | AC50 [1] | AC50 [2] |
| --- | --- | --- |
| Clc1cccc(NCc2nnc(SCc3ccccc3Cl)o2)c1 | 29.1 µM [rising, single point] |  |
| CC(C)(C)c1nnc(NC(=O)CCS(=O)(=O)Cc2ccccc2)s1 | 14.1 µM [falling, partial curve] |  |
| c1ccc2c(c1)CCCN2Cc1nnnn1CC1CCCO1 (stereo not given) | 11.6 µM [rising, single point] |  |
| COc1ccc(-c2nn(-c3ccccc3)cc2C(=O)Nc2nccs2)cc1 | 0.326 µM [falling, full curve, poor fit] |  |
| CCC1CCCCN1C(=O)COc1ccccc1NC(C)=O (stereo not given) | 22.4 µM [falling, single point] |  |
| O=C1CCCC2=C1Sc1ccccc1N2 | 15.8 µM [falling, partial curve, poor fit] |  |
| Cn1nnc2c[n+](CC(=O)c3ccc(Cl)cc3)cc(Br)c21 | 35.5 µM [rising, partial curve, poor fit] | 35.5 µM [falling, single point] |
| Cc1cc(C)nc(SCc2n[nH]c(=S)n2C)n1 | 29.1 µM [rising, single point] |  |
| CNS(=O)(=O)c1cc(NC(=O)c2cnc(SC)n2-c2ccccc2)ccc1C | 35.5 µM [falling, single point] |  |
| CCOc1cc(/C=N/NC(=O)c2cc(-c3ccccc3)nc3ccccc23)ccc1O | 2.51 µM [falling, full curve, poor fit] |  |
| N#C/C(=C(/O)c1ccc(F)cc1)c1nc2ccccc2s1 | 0.447 µM [falling, full curve] |  |
| O=[N+]([O-])c1ccccc1OCCCOc1cccc2cccnc12 | 12.6 µM [rising, partial curve] |  |
| CC(C)CC(=O)NN(C)c1nc(-c2ccccc2)nnc1C(F)(F)F | 9.2 µM [rising, partial curve, poor fit] |  |
| COc1cc(/C=C/C(=O)OC2CC3CCC2(C)C3(C)C)ccc1O (stereo not given) | 35.5 µM [rising, single point] |  |
| CC(=O)c1sc(NC(=O)CN2C(=O)C3CC=CCC3C2=O)nc1-c1ccccc1 (stereo not given) | 0.164 µM [falling, full curve, poor fit] |  |
| Cc1ccc(S(=O)(=O)N(C)C)cc1NC(=O)/C=C/c1cccs1 | 36.6 µM [rising, partial curve, poor fit] |  |
| O=C(O)/C=C/C(=O)NNC(=O)c1ccccc1Br | 10 µM [falling, partial curve] |  |
| Fc1cccc(F)c1/C=N/NC(=S)Nc1cccnc1 | 12.6 µM [rising, single point] | 25.1 µM [falling, single point] |
| O=C(Nc1ccc(Br)cc1)C(c1ccccc1)c1ccccc1 | 31.6 µM [rising, single point] |  |
| COC(=O)c1sc(N)c(C(=O)OC)c1COC(=O)C1CC(=O)N(Cc2ccco2)C1 (stereo not given) | 1.03 µM [rising, partial curve, poor fit] |  |
| COc1ccc(C(=O)NCc2nnc(SCC(=O)Nc3nc4ccc(C)cc4s3)o2)cc1OC | 6.51 µM [rising, full curve, poor fit] |  |
| COc1ccc2nc(SCC(=O)N(C)C3CCCCC3)c(C#N)cc2c1 | 18.4 µM [falling, single point] |  |
| Cc1occc1C(=O)NN=C1C2CC3CC(C2)CC1C3 | 9.2 µM [falling, partial curve] |  |

| SMILES | AC50 [1] | AC50 [2] |
| --- | --- | --- |
| CC(C)C1CC(CCNCc2ccc3c(c2)OCO3)(c2ccccc2)CCO1 (stereo not given) | 10 µM [falling, partial curve, poor fit] |  |
| COc1cc(N=c2ssnc2Cl)c(OC)cc1Cl | 3.66 µM [rising, single point] |  |
| COc1ccc(OCc2cc(-c3ccc(Cl)cc3)no2)cc1 | 12.6 µM [rising, single point] |  |
| N=c1n(CCN2CCOCC2)c2ccccc2n1Cc1ccccc1Br | 6.31 µM [falling, single point] |  |
| CCOCCCNC(=O)c1c(C)c(C(=O)OCC)n(C)c1C | 6.51 µM [rising, single point] |  |
| Cc1cc(C)c2cc3c(ccn3C3OC[C@H](O)[C@H](O)[C@H]3O)cc2n1 (stereo not given in full) | 4.61 µM [falling, single point] |  |
| COc1ccc(-n2nnc3c(SCc4ccccc4)ncnc32)cc1 | 3.55 µM [rising, single point] |  |
| Cc1ccccc1Nc1nc(N)nc(COC(=O)c2cccc(S(=O)(=O)N(C)c3ccccc3)c2)n1 | 29.1 µM [falling, single point] |  |
| COCc1cc(=O)c2ccccc2o1 | 8.2 µM [rising, partial curve, poor fit] |  |
| Cc1ccccc1NC(=S)N1CCCN(Cc2ccc(F)cc2)C1 | 14.1 µM [falling, partial curve] |  |
| CCCOc1ccc(CNC(=O)Cn2ncc3ccccc32)cc1 | 12.6 µM [falling, partial curve, poor fit] |  |
| c1ccc2[nH]c(CN3CCCCC3)nc2c1 | 1.16 µM [rising, full curve, poor fit] |  |
| O=C(CN1CCCCC1)c1c[nH]c2ccccc12 | 10 µM [falling, partial curve] |  |
| Cc1ccc(Cl)cc1N1CCN(S(C)(=O)=O)CC1 | 0.651 µM [rising, full curve, poor fit] |  |
| CC(C)c1ccc(-n2cnn(-c3ncccc3[N+](=O)[O-])c2=O)cc1 | 35.5 µM [falling, single point] |  |
| COc1cc2c(cc1OC)C(c1ccc3c(c1)OCO3)CC(=O)N2 (stereo not given) | 0.259 µM [rising, partial curve, poor fit] |  |
| Cc1cc(C(=O)CSc2nnnn2C)c(C)n1-c1ccc2c(c1)OCCO2 | 11.6 µM [rising, single point] |  |
| O=c1oc2ccc(Cl)cc2cc1-c1ccccc1 | 0.651 µM [rising, full curve] |  |
| CCCCNC(=O)CSc1nc2ccc(N3CCOCC3)cc2c(=O)n1CCc1ccccc1 | 18.4 µM [falling, single point] |  |
| COc1ccc2c(=O)c3c(=O)n(-c4ccccc4)c(-c4ccc(C)cc4)nc3oc2c1 | 0.794 µM [falling, full curve] |  |
| CCC(C)NCCOCCOc1ccc(F)cc1 (stereo not given) | 8.2 µM [rising, partial curve, poor fit] |  |
| O=C1c2cccc3cccc(c23)C(=O)N1CC1CCCO1 (stereo not given) | 5.01 µM [falling, partial curve, poor fit] |  |

Gathered by group, the entries above containing a COOH group.

| SMILES | AC50 [1] | AC50 [2] |
| --- | --- | --- |
| CC1(C)CC(=O)C2=C(C1)c1c(ccc3ccccc13)NC2c1ccc(C(=O)O)cc1 (stereo not given) | 11.2 µM [falling, partial curve] |  |
| O=C(O)/C=C/C(=O)NNC(=O)c1ccccc1Br | 10 µM [falling, partial curve] |  |

Two entries drawn at random from those above:

| SMILES | AC50 [1] | AC50 [2] |
| --- | --- | --- |
| COc1cc(N=c2ssnc2Cl)c(OC)cc1Cl | 3.66 µM [rising, single point] |  |
| CCCOc1ccc(CNC(=O)Cn2ncc3ccccc32)cc1 | 12.6 µM [falling, partial curve, poor fit] |  |
